In PubChem BioAssay AID602313 (National Center for Advancing Translational Sciences (NCATS), 2012):
Out of some 390,000 compounds screened, about 760 (0.19%) were called active. The shares of active, inactive and inconclusive entries below differ from those in the screen. Calls come from the whole dose curve; as a rule, active = well fitted inhibition curve with a large enough effect; inconclusive = small, poorly fitted or top-dose-only effect; inactive = flat fitted curve, though single readings scatter. Potencies beside an inconclusive call are fits to weak or partial responses and may not hold up.

Experiment: qHTS for Inhibitors of Vif-A3F Interactions: qHTS; note: nearly all actives have a fitted effect of over 65% in size; for activity, negative = active: % of control where 0% means no effect
Settings: HeLa A3F-eYFP + Vif (tagged APOBEC3F with the HIV-1 protein that degrades it), YFP fluorescence increase; series mostly up to 46.1 µM; activity, negative = active: at the top concentration
Method in brief: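 HeLa cells stably expressing Vif plus C-terminally eYFP-tagged A3F were seeded, incubated overnight at 37 deg C, dosed with compound, incubated overnight again at 37 deg C. Yellow fluorescence (Ex 488/Em 500-530) reported blocked Vif-mediated A3F-eYFP degradation.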
Potency is the fitted concentration of half-maximal effect.

| Structure (SMILES) | Potency | activity, negative = active |
| --- | --- | --- |
| C=CCNC(=S)NN=C1CCCCCCC1 | inconclusive: 17.8 µM [inhibitor, partial curve, poor fit] | – |
| O=C(NC1CCN(Cc2ccccc2)CC1)c1cncc(Br)c1 | inconclusive: 2.82 µM [inhibitor, partial curve, poor fit] | – |
| CC12CCC(=O)N1C(C(=O)OCC(=O)Nc1ccc(Cl)c(Cl)c1)CS2 (stereo not drawn) | – | inactive: -0.78% |
| C=C(CN(C)C)C(=O)c1ccc(C)cc1C | – | inactive: 13.2% |
| COC(=O)c1cc(NC(=O)c2ccc3c(c2)NC(=O)c2ccccc2S3)cc(C(=O)OC)c1 | inconclusive: 5.62 µM [inhibitor, single point] | – |
| CCc1nnc(NC(=O)c2cc(Cl)ccn2)s1 | inconclusive: 35.5 µM [inhibitor, single point] | – |
| CC(C)CNS(=O)(=O)c1ccc(S(=O)(=O)N2CCC(N3CCCCC3)CC2)cc1 | inconclusive: 25.1 µM [inhibitor, single point] | – |
| CC1(C)CC(=O)/C(=C(/O)CCCN2C(=O)c3ccccc3C2=O)C(=NC(C)(C)C)C1 | inconclusive: 2.51 µM [inhibitor, partial curve, poor fit] | – |
| CCC(C)c1ccc(NC(=S)Nc2ccc(OC)cc2)cc1 (stereo not drawn) | inconclusive: 35.5 µM [inhibitor, single point] | – |
| CC(C)(C)Cc1c(-c2ccc(Cl)cc2)nc2ccc(Cl)cn12 | inconclusive: 22.4 µM [inhibitor, single point] | – |
| CNC(=S)N/N=C/c1cn(CCOc2cccc(OC)c2)c2ccccc12 | inconclusive: 35.5 µM [inhibitor, single point] | – |
| CC(=O)c1ccc(NC(=O)c2cccc(S(=O)(=O)N3CCN(C)CC3)c2)cc1 | inconclusive: 35.5 µM [inhibitor, single point] | – |
| CC(C)NC(=O)CSc1nc2ccccc2n1CC(=O)N(C(C)C)C(C)C | inconclusive: 2.82 µM [inhibitor, single point] | – |
| Cc1ccc(N=C2NC(=O)/C(=C/c3cccn3C)S2)cc1C | inconclusive: 35.5 µM [inhibitor, partial curve, poor fit] | – |
| CN(C/C=C/c1ccccc1)Cc1cccc2ccccc12 | – | inactive: -0.715% |
| NC(=S)NN=C(c1ccc(Br)cc1)C1CC1 | – | inactive: -1.35% |
| COc1ccc(CNC(=O)CCCn2c(=O)c3cccn3c3cccnc32)cc1 | inconclusive: 25.1 µM [inhibitor, single point] | – |
| CCOc1ccc(Nc2nc3c(C)cccc3cc2C#N)cc1 | inconclusive: 14.1 µM [inhibitor, single point] | – |
| Cc1ccc(-n2c(SCC(=O)NCC3CCCO3)nc3n[nH]c(C)c3c2=N)cc1Cl (stereo not drawn) | – | inactive: -3.56% |
| CCOc1ccccc1CNC(=O)Cn1c(-c2ccccc2)cc(C(C)=O)c1C | inconclusive: 35.5 µM [inhibitor, single point] | – |
| Cc1cc(C(=O)N/N=C/c2ccc(-c3cccc(Cl)c3Cl)o2)n[nH]1 | inconclusive: 22.4 µM [inhibitor, single point] | – |
| Cc1ccc2nc(NC(=O)CSc3nccn3Cc3ccc(Cl)cc3)sc2c1 | inconclusive: 12.6 µM [inhibitor, single point] | – |
| CC(=O)N(c1nc(CCl)cs1)c1cccc(C)c1C | inconclusive: 15.8 µM [inhibitor, single point] | – |

| Structure (SMILES) | Potency | activity, negative = active |
| --- | --- | --- |
| O=C(N/N=C\c1c(O)ccc2ccccc12)c1ccc(Cn2cccn2)o1 | inconclusive: 35.5 µM [inhibitor, single point] | – |
| COCCCNC(=S)N/N=C/c1ccccc1O | inconclusive: 11.2 µM [inhibitor, partial curve, poor fit] | – |
| Cc1ccc2nc3c(cc(C(=O)NCCc4ccccc4)c(=N)n3CC3CCCO3)c(=O)n2c1 (stereo not drawn) | inconclusive: 31.6 µM [inhibitor, single point] | – |
| Cc1ccc(N2NC(=O)/C(=C/C=C/c3ccco3)C2=O)cc1C | inconclusive: 25.1 µM [inhibitor, single point] | – |
| Cc1cccc(NC(=S)N(Cc2ccco2)C(C)c2cccs2)c1 (stereo not drawn) | inconclusive: 25.1 µM [inhibitor, single point] | – |
| COc1cc2ccccc2cc1C(=O)NCCCN1CCOCC1 | inconclusive: 3.16 µM [inhibitor, single point] | – |
| CC1CCCCC1NC(=O)/C(C#N)=C/c1ccccc1F (stereo not drawn) | – | inactive: -27.3% |
| O=C1Nc2ccccc2Oc2cc([N+](=O)[O-])ccc21 | inconclusive: 35.5 µM [inhibitor, single point] | – |
| Cc1ccc(NC(=O)C2CCN(S(C)(=O)=O)CC2)cc1Cl | – | inactive: 5.04% |
| CCOc1ccc(N2C(=O)S/C(=C\c3ccc(O)c(OCC)c3)C2=O)cc1 | inconclusive: 25.1 µM [inhibitor, single point] | – |
| Cc1n[nH]c(=O)n1-c1ccc(OCc2ccccc2)cc1 | inconclusive: 6.31 µM [inhibitor, single point] | – |
| CCCN1C(=O)/C(=C/c2ccc(OCC(=O)OCC)cc2)NC1=S | – | inactive: -22.8% |
| C=CCNS(=O)(=O)c1ccc(C(=O)OCc2cc(=O)oc3cc(OC)ccc23)cc1 | inconclusive: 3.16 µM [inhibitor, single point] | – |
| CC(C)c1ccc(NC(=O)c2snc3ccc(Cl)cc23)cc1 | inconclusive: 35.5 µM [inhibitor, single point] | – |
| CC1=NN(c2nc(-c3ccc(C)cc3)cs2)C(=O)C1N=Nc1cccc(O)c1 (stereo not drawn) | – | inactive: 4.69% |
| Cc1ccc(-n2sc3cc(F)ccc3c2=O)c(C)c1 | inconclusive: 15.8 µM [inhibitor, single point] | – |
| CC12CCC(C(=O)Nc3ccccc3Cl)([C@H](Br)C1=O)C2(C)C (stereo partly drawn) | inconclusive: 17.8 µM [inhibitor, single point] | – |
| COc1ccccc1/C=C/C=C(\C#N)C(=O)NC(C)c1ccccc1 (stereo not drawn) | inconclusive: 35.5 µM [inhibitor, single point] | – |
| CCn1nc([N+](=O)[O-])c(C(C#N)c2nc3cc(C(F)(F)F)ccc3s2)c(Cl)c1=O (stereo not drawn) | – | inactive: -2.42% |
| COc1cc(/C=C2/C(=O)N(C)C(=S)N2C)ccc1OCc1cccc(F)c1 | inconclusive: 3.16 µM [inhibitor, full curve, poor fit] | – |
| CCN(CC)c1c2c(c(C#N)c3nc4ccccc4n13)CCC2 | inconclusive: 2.82 µM [inhibitor, single point] | – |
| CCCCn1c(=O)[nH]c(=O)c2c1nc(Cn1ncc(Cl)c(Cl)c1=O)n2CCC | – | inactive: 3.39% |
| COc1ccc(-n2cc(CNCCc3ncc(C)[nH]3)c(-c3ccccc3Cl)n2)cc1 | inconclusive: 1.41 µM [inhibitor, partial curve, poor fit] | – |

Given as comma-separated lines: entries from further up.
Structure (SMILES),Potency,"activity, negative = active"
CC1(C)CC(=O)/C(=C(/O)CCCN2C(=O)c3ccccc3C2=O)C(=NC(C)(C)C)C1,"inconclusive: 2.51 µM [inhibitor, partial curve, poor fit]",–
CC1CCCCC1NC(=O)/C(C#N)=C/c1ccccc1F (stereo not drawn),–,inactive: -27.3%
CC1=NN(c2nc(-c3ccc(C)cc3)cs2)C(=O)C1N=Nc1cccc(O)c1 (stereo not drawn),–,inactive: 4.69%

Two records drawn at random from those above:

| Structure (SMILES) | Potency | activity, negative = active |
| --- | --- | --- |
| CCn1nc([N+](=O)[O-])c(C(C#N)c2nc3cc(C(F)(F)F)ccc3s2)c(Cl)c1=O (stereo not drawn) | – | inactive: -2.42% |
| COC(=O)c1cc(NC(=O)c2ccc3c(c2)NC(=O)c2ccccc2S3)cc(C(=O)OC)c1 | inconclusive: 5.62 µM [inhibitor, single point] | – |

The list continues:

| Structure (SMILES) | Potency | activity, negative = active |
| --- | --- | --- |
| O=C(O)c1ccc(N/N=C/c2ccncc2)cc1 | inconclusive: 12.6 µM [inhibitor, single point] | – |
| CCCN1C(C(=O)c2ccccc2)=C(OC(=O)COc2ccccc2)c2ccccc2S1(=O)=O | – | inactive: 4.21% |
| COc1ccc(C(=O)NC(=S)N(C)C2CCCCC2)cc1 | inconclusive: 5.62 µM [inhibitor, single point] | – |
| CC(=O)NC(c1cc(Cl)c2ccccc2c1O)C(C)C (stereo not drawn) | – | inactive: 4.31% |
| COc1ccc(/C=C(/C(=O)c2cccs2)N2C=CC=CC2=C(C#N)C#N)cc1 | inconclusive: 11.2 µM [inhibitor, partial curve, poor fit] | – |
| COc1ccc(CC(=O)OCC(=O)Nc2ccc(N3CCOCC3)cc2)cc1 | inconclusive: 3.16 µM [inhibitor, single point] | – |
| CCOC(=O)Cc1csc(NC(=O)c2sc3nc4cc(C)ccc4cc3c2N)n1 | inconclusive: 35.5 µM [inhibitor, single point] | – |
| O=C(/C=C/c1ccco1)NC(=S)Nc1nc(-c2ccc(Cl)cc2)cs1 | – | inactive: -1.07% |
| CC1=NN(c2ccccc2)C(=O)/C1=C\c1cc(C)n(-c2cccnc2)c1C | inconclusive: 35.5 µM [inhibitor, single point] | – |
| O=C1Nc2ccccc2S/C1=C/Nc1cccc(Cl)c1 | inconclusive: 11.2 µM [inhibitor, partial curve, poor fit] | – |
| COc1ccc(/C=C/C(=O)C2CC2)cc1COc1c(C)cccc1C | inconclusive: 12.6 µM [inhibitor, partial curve, poor fit] | – |
| N#C/C(=C/c1ccc(N2CCOCC2)o1)c1nc2ccccc2[nH]1 | inconclusive: 2.82 µM [inhibitor, partial curve, poor fit] | – |
| Cc1cc2nc(/C=C/c3nc4cc(C)c(C)cc4[nH]3)[nH]c2cc1C | – | inactive: 3.75% |
| CCn1c(SCc2ccccc2Cl)nc(=O)c2c(C(=O)OC)cc(C3CC3)nc21 | – | inactive: 3.71% |
| Cc1cc(C)c(S(=O)(=O)c2ccccc2)c(OC(=O)c2c(Cl)cc(Cl)cc2Cl)n1 | – | inactive: 1.65% |
| CCCCN(C)C(=O)Cn1nc(Cc2ccncc2)c2ccccc2c1=O | inconclusive: 35.5 µM [inhibitor, single point] | – |
| Cc1ccc(-c2csc(/C(C#N)=C/c3ccccc3Cl)n2)cc1 | inconclusive: 15.8 µM [inhibitor, single point] | – |
| Cc1ccc2cccc(NC(=O)c3ccc(-c4ccc(Br)cc4)o3)c2n1 | – | inactive: 0.856% |
| Oc1ccccc1C1=Nc2ccccc2N=C(c2ccco2)C1 | inconclusive: 35.5 µM [inhibitor, single point] | – |
| O=C(NCC1OCCc2ccccc21)c1ccc(NC(=O)c2ccc(Cl)cc2)cc1 (stereo not drawn) | inconclusive: 1.58 µM [inhibitor, partial curve, poor fit] | – |
| NS(=O)(=O)c1ccc(CCNC(=O)c2nc(SCc3ccccc3F)ncc2Cl)cc1 | – | inactive: -7% |
| O=C(CCC(=O)Nc1ccc(Br)cc1)N/N=C/c1ccccc1F | inconclusive: 22.4 µM [inhibitor, single point] | – |
